This is an account of results in publication doi:10.64898/2025.12.02.691892.

By UniProt entry, the sequences of proteins in these tests, tags left out.
UniProt Q15910: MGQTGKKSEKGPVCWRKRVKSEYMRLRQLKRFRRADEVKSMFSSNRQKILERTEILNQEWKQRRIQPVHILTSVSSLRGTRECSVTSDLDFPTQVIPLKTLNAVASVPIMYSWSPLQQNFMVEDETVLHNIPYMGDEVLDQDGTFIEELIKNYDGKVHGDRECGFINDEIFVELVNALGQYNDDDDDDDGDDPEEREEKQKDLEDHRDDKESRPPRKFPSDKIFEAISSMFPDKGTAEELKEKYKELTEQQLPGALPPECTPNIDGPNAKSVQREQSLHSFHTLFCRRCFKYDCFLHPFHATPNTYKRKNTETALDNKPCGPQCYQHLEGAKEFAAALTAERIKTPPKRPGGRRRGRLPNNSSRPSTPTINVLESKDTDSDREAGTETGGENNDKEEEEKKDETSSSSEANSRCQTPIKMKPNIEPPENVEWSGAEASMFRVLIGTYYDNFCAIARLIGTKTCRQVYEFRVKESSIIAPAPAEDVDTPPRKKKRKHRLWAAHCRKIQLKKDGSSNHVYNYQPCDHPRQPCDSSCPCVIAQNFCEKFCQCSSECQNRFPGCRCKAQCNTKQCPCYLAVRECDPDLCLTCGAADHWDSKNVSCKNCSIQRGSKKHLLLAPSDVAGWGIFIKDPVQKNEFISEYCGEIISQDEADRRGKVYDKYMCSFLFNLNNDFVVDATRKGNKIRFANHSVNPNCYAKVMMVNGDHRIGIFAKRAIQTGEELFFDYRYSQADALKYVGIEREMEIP
UniProt Q12905: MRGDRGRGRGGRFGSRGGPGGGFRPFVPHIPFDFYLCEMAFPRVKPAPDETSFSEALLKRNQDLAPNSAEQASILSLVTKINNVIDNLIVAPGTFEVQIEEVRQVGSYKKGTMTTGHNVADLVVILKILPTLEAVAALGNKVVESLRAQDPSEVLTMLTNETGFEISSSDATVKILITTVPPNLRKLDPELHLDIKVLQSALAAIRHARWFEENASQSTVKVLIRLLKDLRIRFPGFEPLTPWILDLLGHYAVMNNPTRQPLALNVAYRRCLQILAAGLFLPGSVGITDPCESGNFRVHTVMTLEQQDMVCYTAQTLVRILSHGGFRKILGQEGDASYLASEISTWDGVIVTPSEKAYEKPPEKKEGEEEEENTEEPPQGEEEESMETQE

The assay has as its target endogenous EZH2 (Enhancer of Zeste Homolog 2) (human (endogenous in LNCaP, LNCaP-abl, C4-2B, 22Rv1)) (UniProt Q15910). Description: co-IP.

These are yes or no findings as the source states them, for the method shown. In cells and extracts the contact can be indirect. Some binding calls cover weakened binding; strength is not graded here.

With “endogenous NF45 (nuclear factor 45) (from UniProt Q12905 1-390)”, the binding entry is recorded as “binds”.

B1: endogenous NF110 (protein, UniProt Q12906 1-894)
chain: MRPMRIFVNDDRHVMAKHSSVYPTQEELEAVQNMVSHTERALKAVSDWIDEQEKGSSEQAESDNMDVPPEDDSKEGAGEQKTEHMTRTLRGVMRVGLVAKGLLLKGDLDLELVLLCKEKPTTALLDKVADNLAIQLAAVTEDKYEILQSVDDAAIVIKNTKEPPLSLTIHLTSPVVREEMEKVLAGETLSVNDPPDVLDRQKCLAALASLRHAKWFQARANGLKSCVIVIRVLRDLCTRVPTWGPLRGWPLELLCEKSIGTANRPMGAGEALRRVLECLASGIVMPDGSGIYDPCEKEATDAIGHLDRQQREDITQSAQHALRLAAFGQLHKVLGMDPLPSKMPKKPKNENPVDYTVQIPPSTTYAITPMKRPMEEDGEEKSPSKKKKKIQKKEEKAEPPQAMNALMRLNQLKPGLQYKLVSQTGPVHAPIFTMSVEVDGNSFEASGPSKKTAKLHVAVKVLQDMGLPTGAEGRDSSKGEDSAEETEAKPAVVAPAPVVEAVSTPSAAFPSDATAEQGPILTKHGKNPVMELNEKRRGLKYELISETGGSHDKRFVMEVEVDGQKFQGAGSNKKVAKAYAALAALEKLFPDTPLALDANKKKRAPVPVRGGPKFAAKPHNPGFGMGGPMHNEVPPPPNLRGRGRGGSIRGRGRGRGFGGANHGGYMNAGAGYGSYGYGGNSATAGYSQFYSNGGHSGNASGGGGGGGGGSSGYGSYYQGDNYNSPVPPKHAGKKQPHGGQQKPSYGSGYQSHQGQQQSYNQSPYSNYGPPQGKQKGYNHGQGSYSYSNSYNSPGGGGGSDYNYESKFNYSGSGGRSGGNSYGSGGASYNPGSHGGYGGGSGGGSSYQGKQGGYSQSNYNSPGSGQNYSGPPSSYQSSQGGYGRNADHSMNYQYR
Take B1: the binding entry is “binds”.
